Test results published in the supplement of paper PMC12819154, “High-throughput peptide-centric local stability assay extends protein–ligand identification to membrane proteins, tissues and bacteria” (Nature Structural & Molecular Biology, 2025).
This is one part of the list. Most values lie at the level of the controls, where differences are scatter.

By UniProt entry, the sequences of proteins in these tests, tags left out. Where a name states a change or a piece, a line headed by the entry shows the natural chain unless it says otherwise.
UniProt P70429, whole entry: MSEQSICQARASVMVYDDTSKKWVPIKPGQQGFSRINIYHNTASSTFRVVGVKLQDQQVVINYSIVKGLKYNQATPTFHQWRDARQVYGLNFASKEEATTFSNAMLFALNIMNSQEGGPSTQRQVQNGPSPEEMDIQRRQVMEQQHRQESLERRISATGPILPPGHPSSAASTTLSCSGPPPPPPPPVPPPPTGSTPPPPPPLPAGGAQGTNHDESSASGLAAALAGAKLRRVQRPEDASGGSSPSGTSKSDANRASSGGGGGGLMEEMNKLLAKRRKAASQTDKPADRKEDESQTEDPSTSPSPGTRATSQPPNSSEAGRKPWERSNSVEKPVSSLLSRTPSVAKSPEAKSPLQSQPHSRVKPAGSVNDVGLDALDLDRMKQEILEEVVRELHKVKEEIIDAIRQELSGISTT
UniProt P97311: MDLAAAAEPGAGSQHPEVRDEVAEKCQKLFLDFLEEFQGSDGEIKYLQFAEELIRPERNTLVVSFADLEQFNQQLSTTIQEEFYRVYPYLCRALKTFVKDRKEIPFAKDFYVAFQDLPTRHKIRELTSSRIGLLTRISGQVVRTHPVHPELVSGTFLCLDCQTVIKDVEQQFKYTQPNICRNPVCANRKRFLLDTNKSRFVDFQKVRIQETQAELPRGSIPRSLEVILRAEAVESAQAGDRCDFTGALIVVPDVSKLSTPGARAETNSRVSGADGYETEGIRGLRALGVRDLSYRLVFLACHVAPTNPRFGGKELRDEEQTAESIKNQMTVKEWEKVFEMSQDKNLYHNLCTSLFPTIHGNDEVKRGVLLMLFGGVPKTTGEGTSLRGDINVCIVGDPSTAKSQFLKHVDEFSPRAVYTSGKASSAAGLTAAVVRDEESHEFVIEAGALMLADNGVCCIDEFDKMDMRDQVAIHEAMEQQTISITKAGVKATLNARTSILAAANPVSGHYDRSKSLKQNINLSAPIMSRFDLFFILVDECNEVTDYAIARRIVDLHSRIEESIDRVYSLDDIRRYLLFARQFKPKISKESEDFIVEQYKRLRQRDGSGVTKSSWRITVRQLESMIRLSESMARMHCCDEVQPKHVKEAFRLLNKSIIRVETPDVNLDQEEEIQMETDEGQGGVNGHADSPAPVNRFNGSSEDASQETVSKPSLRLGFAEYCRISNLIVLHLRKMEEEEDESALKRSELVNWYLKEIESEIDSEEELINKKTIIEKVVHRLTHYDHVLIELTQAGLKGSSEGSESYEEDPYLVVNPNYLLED
UniProt P97823: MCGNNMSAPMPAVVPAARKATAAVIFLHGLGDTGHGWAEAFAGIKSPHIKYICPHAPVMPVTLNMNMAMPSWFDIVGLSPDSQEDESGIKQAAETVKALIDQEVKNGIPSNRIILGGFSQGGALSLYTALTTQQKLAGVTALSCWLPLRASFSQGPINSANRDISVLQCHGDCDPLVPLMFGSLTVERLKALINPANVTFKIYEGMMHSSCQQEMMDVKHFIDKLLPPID
UniProt P97363: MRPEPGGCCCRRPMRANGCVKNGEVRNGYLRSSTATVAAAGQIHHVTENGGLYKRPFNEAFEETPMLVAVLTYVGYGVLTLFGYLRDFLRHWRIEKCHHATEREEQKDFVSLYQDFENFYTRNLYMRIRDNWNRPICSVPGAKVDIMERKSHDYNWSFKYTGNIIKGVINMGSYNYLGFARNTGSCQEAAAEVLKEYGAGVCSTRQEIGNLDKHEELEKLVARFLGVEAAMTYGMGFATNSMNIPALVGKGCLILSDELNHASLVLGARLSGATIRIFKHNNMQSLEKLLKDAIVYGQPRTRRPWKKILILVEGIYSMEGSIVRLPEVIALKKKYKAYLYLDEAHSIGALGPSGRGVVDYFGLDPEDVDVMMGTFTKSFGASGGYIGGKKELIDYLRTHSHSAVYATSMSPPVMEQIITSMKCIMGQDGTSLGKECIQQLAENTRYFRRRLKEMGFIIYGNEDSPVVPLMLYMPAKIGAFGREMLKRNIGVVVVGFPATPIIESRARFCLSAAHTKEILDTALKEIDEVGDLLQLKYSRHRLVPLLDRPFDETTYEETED
UniProt Q00612, whole entry: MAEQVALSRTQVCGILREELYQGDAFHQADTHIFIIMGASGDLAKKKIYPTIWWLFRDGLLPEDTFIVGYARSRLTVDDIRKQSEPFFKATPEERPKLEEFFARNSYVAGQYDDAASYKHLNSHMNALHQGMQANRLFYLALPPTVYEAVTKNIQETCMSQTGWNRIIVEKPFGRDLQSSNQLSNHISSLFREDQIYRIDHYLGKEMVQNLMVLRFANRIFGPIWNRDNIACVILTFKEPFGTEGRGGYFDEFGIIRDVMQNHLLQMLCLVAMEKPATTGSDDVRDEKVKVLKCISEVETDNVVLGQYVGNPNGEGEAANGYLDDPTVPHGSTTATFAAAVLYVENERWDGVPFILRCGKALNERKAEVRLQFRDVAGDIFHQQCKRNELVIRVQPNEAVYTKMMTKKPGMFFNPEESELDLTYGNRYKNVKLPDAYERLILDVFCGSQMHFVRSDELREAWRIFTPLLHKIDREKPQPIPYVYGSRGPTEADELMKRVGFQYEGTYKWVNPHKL
UniProt P70295: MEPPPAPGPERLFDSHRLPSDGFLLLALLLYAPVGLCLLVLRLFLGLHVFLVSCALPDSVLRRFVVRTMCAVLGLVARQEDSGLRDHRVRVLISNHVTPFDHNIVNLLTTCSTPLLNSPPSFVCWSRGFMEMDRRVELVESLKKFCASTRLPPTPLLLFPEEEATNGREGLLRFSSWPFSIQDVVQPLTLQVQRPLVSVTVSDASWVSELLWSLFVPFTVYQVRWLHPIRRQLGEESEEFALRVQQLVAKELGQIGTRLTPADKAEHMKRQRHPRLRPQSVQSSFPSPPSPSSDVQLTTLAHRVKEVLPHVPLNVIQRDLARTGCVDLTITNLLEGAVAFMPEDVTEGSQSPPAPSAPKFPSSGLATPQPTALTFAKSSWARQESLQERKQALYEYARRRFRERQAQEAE
UniProt P83093, whole entry: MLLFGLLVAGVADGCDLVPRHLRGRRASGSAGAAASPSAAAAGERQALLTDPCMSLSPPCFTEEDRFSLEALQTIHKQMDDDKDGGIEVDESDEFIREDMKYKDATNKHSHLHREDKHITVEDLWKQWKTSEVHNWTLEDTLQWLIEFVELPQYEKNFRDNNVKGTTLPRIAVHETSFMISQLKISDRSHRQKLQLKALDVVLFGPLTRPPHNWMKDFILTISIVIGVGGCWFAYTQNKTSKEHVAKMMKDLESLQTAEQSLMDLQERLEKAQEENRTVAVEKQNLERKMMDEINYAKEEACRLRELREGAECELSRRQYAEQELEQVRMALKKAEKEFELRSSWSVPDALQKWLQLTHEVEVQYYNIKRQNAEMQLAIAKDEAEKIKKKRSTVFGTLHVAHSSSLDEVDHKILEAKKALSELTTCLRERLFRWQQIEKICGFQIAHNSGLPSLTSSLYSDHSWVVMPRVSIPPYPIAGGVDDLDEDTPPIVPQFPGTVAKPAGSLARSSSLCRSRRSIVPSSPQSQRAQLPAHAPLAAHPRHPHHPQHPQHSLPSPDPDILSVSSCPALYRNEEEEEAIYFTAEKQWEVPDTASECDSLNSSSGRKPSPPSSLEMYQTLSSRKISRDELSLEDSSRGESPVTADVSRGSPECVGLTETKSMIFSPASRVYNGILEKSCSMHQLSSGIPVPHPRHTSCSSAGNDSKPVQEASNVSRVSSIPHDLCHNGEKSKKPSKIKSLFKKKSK
UniProt P70269: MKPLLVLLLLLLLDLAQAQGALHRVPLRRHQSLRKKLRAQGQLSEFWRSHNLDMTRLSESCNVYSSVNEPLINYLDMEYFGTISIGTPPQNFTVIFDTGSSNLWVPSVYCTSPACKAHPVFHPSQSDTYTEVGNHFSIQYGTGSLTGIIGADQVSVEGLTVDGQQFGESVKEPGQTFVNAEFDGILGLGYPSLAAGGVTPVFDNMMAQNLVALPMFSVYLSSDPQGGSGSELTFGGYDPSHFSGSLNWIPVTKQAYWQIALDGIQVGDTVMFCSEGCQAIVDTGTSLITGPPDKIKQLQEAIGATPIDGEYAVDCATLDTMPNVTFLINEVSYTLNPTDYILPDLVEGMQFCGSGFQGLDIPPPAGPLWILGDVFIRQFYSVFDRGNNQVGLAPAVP
UniProt P70280, whole entry: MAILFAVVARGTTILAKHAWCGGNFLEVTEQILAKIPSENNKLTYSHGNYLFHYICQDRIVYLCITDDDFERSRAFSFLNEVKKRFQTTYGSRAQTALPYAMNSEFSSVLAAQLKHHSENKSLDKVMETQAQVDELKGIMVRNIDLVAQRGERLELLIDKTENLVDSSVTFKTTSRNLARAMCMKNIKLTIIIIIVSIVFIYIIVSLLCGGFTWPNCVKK
UniProt P70389: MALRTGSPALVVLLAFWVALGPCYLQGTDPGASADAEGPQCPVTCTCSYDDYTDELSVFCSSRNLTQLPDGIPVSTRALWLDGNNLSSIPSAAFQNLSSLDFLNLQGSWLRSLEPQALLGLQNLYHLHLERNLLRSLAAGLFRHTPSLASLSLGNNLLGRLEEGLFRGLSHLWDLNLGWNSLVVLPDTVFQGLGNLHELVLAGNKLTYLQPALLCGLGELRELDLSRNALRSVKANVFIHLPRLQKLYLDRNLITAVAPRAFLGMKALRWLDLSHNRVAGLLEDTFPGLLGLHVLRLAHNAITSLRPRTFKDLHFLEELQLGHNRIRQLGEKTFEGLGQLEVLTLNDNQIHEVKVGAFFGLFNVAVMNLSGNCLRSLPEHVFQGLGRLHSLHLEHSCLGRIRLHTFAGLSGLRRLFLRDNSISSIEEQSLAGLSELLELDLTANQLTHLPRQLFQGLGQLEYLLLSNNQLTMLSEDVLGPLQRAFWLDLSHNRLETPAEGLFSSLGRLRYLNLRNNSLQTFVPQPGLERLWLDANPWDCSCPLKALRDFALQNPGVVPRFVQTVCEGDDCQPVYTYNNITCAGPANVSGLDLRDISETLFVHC
UniProt P81117: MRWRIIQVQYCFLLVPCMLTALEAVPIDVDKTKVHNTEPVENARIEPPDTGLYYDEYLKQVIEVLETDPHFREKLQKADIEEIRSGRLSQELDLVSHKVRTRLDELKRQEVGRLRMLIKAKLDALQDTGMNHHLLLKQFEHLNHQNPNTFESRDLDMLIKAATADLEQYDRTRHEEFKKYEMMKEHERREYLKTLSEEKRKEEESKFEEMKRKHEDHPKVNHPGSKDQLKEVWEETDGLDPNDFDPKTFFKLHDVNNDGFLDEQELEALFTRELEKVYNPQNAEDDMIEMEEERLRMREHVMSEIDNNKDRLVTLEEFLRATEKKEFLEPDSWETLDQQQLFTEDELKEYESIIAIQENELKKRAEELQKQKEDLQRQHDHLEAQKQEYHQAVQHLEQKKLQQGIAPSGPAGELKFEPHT
UniProt P70175: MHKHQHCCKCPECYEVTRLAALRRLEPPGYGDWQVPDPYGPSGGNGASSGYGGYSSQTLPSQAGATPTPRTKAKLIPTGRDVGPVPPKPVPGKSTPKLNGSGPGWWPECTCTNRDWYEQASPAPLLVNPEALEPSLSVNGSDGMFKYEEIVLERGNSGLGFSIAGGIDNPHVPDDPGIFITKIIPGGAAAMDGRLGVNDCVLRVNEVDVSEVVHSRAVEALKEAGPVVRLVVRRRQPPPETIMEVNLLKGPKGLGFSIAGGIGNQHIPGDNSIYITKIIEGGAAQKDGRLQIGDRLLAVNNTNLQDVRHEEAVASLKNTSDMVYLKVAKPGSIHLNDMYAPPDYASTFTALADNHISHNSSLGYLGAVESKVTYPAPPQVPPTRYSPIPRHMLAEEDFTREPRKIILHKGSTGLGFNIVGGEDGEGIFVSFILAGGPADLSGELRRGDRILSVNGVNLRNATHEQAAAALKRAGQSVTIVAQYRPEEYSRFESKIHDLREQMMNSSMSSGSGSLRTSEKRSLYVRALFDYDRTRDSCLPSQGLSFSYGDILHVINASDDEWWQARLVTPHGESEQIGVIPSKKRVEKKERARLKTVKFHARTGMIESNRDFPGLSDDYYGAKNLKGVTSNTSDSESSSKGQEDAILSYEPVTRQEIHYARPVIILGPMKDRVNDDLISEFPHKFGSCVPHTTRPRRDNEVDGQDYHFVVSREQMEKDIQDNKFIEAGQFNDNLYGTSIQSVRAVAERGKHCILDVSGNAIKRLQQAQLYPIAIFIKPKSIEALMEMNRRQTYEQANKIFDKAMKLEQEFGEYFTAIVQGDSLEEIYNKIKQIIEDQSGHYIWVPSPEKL
UniProt P70279: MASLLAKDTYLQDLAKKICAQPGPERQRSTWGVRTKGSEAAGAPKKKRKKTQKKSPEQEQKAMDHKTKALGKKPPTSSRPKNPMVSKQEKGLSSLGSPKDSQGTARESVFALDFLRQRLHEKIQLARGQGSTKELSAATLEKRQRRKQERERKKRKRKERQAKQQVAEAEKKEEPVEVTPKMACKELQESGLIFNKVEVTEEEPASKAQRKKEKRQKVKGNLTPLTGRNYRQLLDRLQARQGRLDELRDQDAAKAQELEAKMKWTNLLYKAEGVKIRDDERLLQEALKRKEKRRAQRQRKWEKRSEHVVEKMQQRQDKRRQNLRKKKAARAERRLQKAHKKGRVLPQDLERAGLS

These targets were tested with CN[C@@H]1C[C@H]2O[C@@](C)([C@@H]1OC)n1c3ccccc3c3c4c(c5c6ccccc6n2c5c31)C(=O)NC4 [staurosporine] (assay: log2 fold change of tryptic peptide abundance, ligand vs vehicle (limited proteolysis) (log2 ratio); higher = more trypsin-susceptible (destabilized)). Settings: ligand concentration: 20 uM; sample: mouse liver crude lysate; replicate design: treated separately.
For “UniProt P70429 (peptide sequence: ATSQPPNSSEAGR, peptide start residue: 309)”, the log2 fold change was -0.197. For “UniProt P97311 (peptide sequence: LGFAEYCR, peptide start residue: 715)”, the log2 fold change was 0.333. Work on “UniProt P97454 (peptide sequence: HNEFNPQHSLLVQFR, peptide start residue: 144)” yielded a log2 fold change of 0.226. For “UniProt P70194 (peptide sequence: LGALQEAVAAQKQEQK, peptide start residue: 388)”, the log2 fold change was 0.213. Work on “UniProt P97494 (peptide sequence: KVQLLLNGGDVLETLQEKGER, peptide start residue: 64)” yielded a log2 fold change of -0.435. “UniProt P81270 (peptide sequence: YPSDLPYMGSYHAHPQK, peptide start residue: 418)” showed a log2 fold change of -0.518. In the case of “UniProt P70274 (peptide sequence: ESEAAPSSCCCHCR, peptide start residue: 292)”, the log2 fold change is reported as 0.252. “UniProt P97823 (peptide sequence: HFIDKLLPPID, peptide start residue: 220)” was tested, and the log2 fold change was -0.45. For “UniProt P97363 (peptide sequence: PEPGGCCCR, peptide start residue: 3)”, the log2 fold change was 0.027. “UniProt Q00612 (peptide sequence: EKPQPIPYVYGSR, peptide start residue: 475)” was tested, and the log2 fold change was -0.27. For “UniProt P99028 (peptide sequence: EHCEQLEK, peptide start residue: 33)”, the log2 fold change was -0.117. “UniProt P70295 (peptide sequence: LTPADKAEHMK, peptide start residue: 259)” showed a log2 fold change of 0.248. In the case of “UniProt P83093 (peptide sequence: KAEKEFELR, peptide start residue: 334)”, the log2 fold change is reported as 0.556. In the case of “UniProt P70121 (peptide sequence: YDALSEHNLK, peptide start residue: 114)”, the log2 fold change is reported as -0.287. In the case of “UniProt P70269 (peptide sequence: AQGQLSEFWR, peptide start residue: 39)”, the log2 fold change is reported as 0.366. “UniProt P97714 (peptide sequence: LLKFSREK, peptide start residue: 331)” showed a log2 fold change of -0.0643. Work on “UniProt P70315 (peptide sequence: GLPAPGPGPTDKK, peptide start residue: 216)” yielded a log2 fold change of -0.576. With “UniProt P70280 (peptide sequence: AFSFLNEVK, peptide start residue: 75)” the log2 fold change was -0.323. “UniProt P70389 (peptide sequence: AFWLDLSHNR, peptide start residue: 484)” gave a log2 fold change of 0.34. “UniProt P81117 (peptide sequence: LDALQDTGMNHHLLLK, peptide start residue: 122)” showed a log2 fold change of 0.21. “UniProt P99025 (peptide sequence: IVLDKLECK, peptide start residue: 55)” was tested, and the log2 fold change was 0.0222. For “UniProt P70175 (peptide sequence: RDNEVDGQDYHFVVSR, peptide start residue: 696)”, the log2 fold change was 0.328. “UniProt P70279 (peptide sequence: QQVAEAEKKEEPVEVTPK, peptide start residue: 164)” gave a log2 fold change of -0.276. “UniProt P63248 (peptide sequence: LAGLDINKTEGEDDGQR, peptide start residue: 42)” gave a log2 fold change of 0.184.
